Results taken from article PMC5407808.
Where a protein sequence is shown, tags need not be part of it.

Test system: T1, HexA-6His (Photorhabdus luminescens TT01)
T1 sequence (looked up): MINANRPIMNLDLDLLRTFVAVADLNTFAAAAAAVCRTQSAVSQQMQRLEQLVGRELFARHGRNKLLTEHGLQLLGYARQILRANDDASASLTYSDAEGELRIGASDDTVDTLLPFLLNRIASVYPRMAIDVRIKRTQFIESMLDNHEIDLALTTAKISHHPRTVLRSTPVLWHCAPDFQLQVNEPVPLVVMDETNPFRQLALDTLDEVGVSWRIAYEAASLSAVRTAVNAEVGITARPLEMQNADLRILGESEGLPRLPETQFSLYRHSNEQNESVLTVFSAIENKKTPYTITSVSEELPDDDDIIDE
Assay: SPR
Settings: 1:1 fit, but not true 1:1 and no saturation up to 2000 nM, ka 1300 /M*s, kd 0.002 /s, no ligand added; 5' biotin on forward primer (PpcfA-Btn_fwd; position implied); SPR (Biacore T200, streptavidin chip, ~300 RU DNA): HBS-EP+ 10 mM HEPES pH 7.4, 150 mM NaCl, 3 mM EDTA, 0.05% Surfactant P20, 25 C, 30 ul/min; recombinant protein; residues 1-309; label: biotin; probe letters rebuilt from the primers and the genome

In the case of “TATTTGTCTTTATAATGATAATTTATTTTATATGATTTCACATAAGAATGTTTAATAATATCAATATATATCCTTATTATTAAATAATAATATCAAAAATTTATATGGGATTTTATTGATATAACTGTCAGAGTTGACAGTAGACTTTTAAGTGTAATTTTATAATTATAATTTTTGTTAATTAACCCTTGTGTGAGAACACAAATGAATGCGCTTATTGTTAATAGGTATGAGTTTATTCTCCATAGTTATTGGTAAATTGAATGGTTTCATTAATAAATTAATAGGTATATTAGATGTTTAATTGATTTATTTATTTGTTAATAAAAATACCTTGTCATCATTATATGTTCTTCATATTAACCTAGACATAAGGGATAAAGCTGGT (double strand) [PpcfA promoter fragment (400 bp)]”, the Kd is reported as 1300 nM.
